Data on one substance can be found in paper PMC10164908.

By UniProt entry, the sequences of proteins in these tests, tags left out.
UniProt P60953: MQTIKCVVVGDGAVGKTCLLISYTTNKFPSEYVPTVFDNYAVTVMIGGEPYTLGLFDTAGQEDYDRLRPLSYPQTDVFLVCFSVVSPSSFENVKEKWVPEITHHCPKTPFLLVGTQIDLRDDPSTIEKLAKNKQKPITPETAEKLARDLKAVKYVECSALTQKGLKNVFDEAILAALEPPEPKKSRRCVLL
UniProt Q91YD9: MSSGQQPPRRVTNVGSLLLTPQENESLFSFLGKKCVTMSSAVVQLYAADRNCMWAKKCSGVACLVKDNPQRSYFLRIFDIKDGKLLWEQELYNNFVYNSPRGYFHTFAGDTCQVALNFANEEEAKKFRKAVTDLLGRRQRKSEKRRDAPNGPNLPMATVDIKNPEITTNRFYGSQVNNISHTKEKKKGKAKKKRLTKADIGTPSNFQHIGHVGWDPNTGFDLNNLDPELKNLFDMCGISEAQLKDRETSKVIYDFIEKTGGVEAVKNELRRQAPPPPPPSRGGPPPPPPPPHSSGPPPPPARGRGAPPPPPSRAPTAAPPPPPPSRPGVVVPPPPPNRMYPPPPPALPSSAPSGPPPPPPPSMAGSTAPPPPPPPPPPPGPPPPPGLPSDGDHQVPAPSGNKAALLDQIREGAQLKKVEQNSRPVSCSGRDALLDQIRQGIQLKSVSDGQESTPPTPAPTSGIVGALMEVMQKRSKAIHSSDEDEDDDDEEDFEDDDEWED

No constants are given. Whether binding was seen depends on the method and setting. In cells and extracts the contact can be indirect. Some entries that bind do so weakly or less than the wild type.

The target in the assay is Emerald GFP-Cdc42 (UniProt P60953). Put plainly: co-IP; GFP-Cdc42 expressed in WT MEFs for 48 h and isolated with GFP-Trap agarose (Chromotek); bound endogenous N-WASP detected by immunoblot; cells uninfected or infected for 30 min with WT or ΔsopE2 S. Tm. Background: A western blot detects proteins with antibodies after separation by electrophoresis.

With N-WASP (from UniProt Q91YD9 1-501), the binding result is recorded as “binds”.
